Data published in patent US20150330991A1, “METHOD FOR IMPROVING TARGET AFFINITY OF PEPTIDE” (GWANGJU INSTITUTE OF SCIENCE AND TECHNOLOGY, priority 2012, published 2015).

Key:
Assay in all cases: phage ELISA, wells coated with 5 µg/ml protein, anti-M13-HRP, absorbance at 450 nm
[1] = molecular target: HSA (human)
[2] = molecular target: TNF
[3] = molecular target: VEGFR2
[4] = molecular target: VEGF
[5] = molecular target: Ovalbumin

Binder | binding [1] | binding [2] | binding [3] | binding [4] | binding [5]
GNQWFIGGGSWTWENGKWTWKGRIPKNR [VEGFR1_opti1] | no binding | no binding | no binding | no binding | 
WSHPQFEKGGGSWTWENGKWTWKGAHPQVR [Strep_opti1] |  |  |  | no binding | no binding
GNQWFIGGGSWTWENGKWTWKGQQAIQP [VEGFR1_opti3] | no binding | no binding | no binding | no binding | 

More lines, now with the values ahead:

binding [1] | binding [2] | binding [3] | binding [4] | binding [5] | Binder
no binding | no binding | no binding | no binding |  | GNQWFIGGGSWTWENGKWTWKGKLQNPM [VEGFR1_opti2]
 |  |  | no binding | no binding | WSHPQFEKGGGSWTWENGKWTWKGTLIHPM [Strep_opti2]

No constants are given. Whether binding was seen depends on the method and setting.
